No constants are given. Whether binding was seen depends on the method and setting. In cells and extracts the contact can be indirect. Here binding means that the protein was enriched with, or labelled near, the bait; the list need not be complete.

Sequences of proteins named here, by UniProt entry; tags and fusion partners are left off.
UniProt Q9EQU5: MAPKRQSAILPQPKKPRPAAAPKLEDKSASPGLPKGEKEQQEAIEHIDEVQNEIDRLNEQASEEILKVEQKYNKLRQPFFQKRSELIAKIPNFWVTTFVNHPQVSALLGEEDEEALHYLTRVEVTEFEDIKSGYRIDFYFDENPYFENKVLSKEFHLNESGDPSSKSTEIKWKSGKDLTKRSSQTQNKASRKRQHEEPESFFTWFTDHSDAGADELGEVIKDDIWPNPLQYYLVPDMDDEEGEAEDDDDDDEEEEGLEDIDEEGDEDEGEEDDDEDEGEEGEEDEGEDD
UniProt P63330: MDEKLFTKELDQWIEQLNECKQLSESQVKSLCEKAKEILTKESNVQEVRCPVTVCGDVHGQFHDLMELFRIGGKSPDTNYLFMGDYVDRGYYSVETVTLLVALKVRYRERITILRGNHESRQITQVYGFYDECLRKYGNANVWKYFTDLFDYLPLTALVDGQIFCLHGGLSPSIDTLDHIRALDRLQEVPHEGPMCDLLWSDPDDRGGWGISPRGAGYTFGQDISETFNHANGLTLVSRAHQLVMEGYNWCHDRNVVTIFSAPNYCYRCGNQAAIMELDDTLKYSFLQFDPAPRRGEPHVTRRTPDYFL
UniProt Q61937: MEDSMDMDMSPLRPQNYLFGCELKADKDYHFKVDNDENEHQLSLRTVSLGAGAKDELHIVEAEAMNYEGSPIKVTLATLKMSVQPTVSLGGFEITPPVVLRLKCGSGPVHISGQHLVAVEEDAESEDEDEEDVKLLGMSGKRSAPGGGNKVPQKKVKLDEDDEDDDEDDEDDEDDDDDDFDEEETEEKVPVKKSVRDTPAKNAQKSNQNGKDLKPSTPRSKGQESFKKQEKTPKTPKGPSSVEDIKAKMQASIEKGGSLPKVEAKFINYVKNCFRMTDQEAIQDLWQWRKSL

For 4 substances, binding results are on record in article PMC7685970.

For this assay, the target named is T1, Shwachman–Bodian–Diamond syndrome (SBDS) protein (mouse (endogenous in FDC.P1)) (UniProt P70122).
T1 sequence: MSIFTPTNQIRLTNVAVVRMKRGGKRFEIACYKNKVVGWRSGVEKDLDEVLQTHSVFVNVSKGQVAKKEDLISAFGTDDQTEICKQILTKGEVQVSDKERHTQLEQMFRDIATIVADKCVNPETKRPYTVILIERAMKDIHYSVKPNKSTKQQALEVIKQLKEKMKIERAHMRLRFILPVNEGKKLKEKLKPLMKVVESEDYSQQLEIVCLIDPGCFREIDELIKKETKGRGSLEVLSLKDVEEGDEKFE
The assay is described as follows: affinity purification with mass spectrometry; SBDS immunoprecipitates from c-KIT/D816V cells subjected to LC-MS/MS.

With “PP2A structural subunit (PP2A-A) (mouse (endogenous in FDC.P1))”, the binding entry is reported as “binds”.

For SET (from UniProt Q9EQU5 1-289), the binding result is “binds”.

On to “catalytic subunit of PP2A, PP2Ac (PPP2CA) (from UniProt P63330 1-309) (enzyme)”, for which the binding entry is on record as “binds”.

As to “nucleophosmin (NPM1) (from UniProt Q61937 1-292)”, the binding result was “binds”.
